Data source: PubChem BioAssay AID504774 (Drosophila RNAi Screening Center, 2011)

Purpose: 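Genes required for cells to withstand methyl methanesulphonate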 (primary screen)
System: Drosophila Kc167 cells
Reagent: long dsRNA against Drosophila genes, about 0.25 µg dsRNA per well
Time to read-out: about 6 days: 3 days knock-down, then 3 days with or without MMS
Treatment: methyl methanesulphonate 0.004% (w/v) for 3 days after knock-down
Measurement: 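ATP-dependent luminescence as a measure of live cells in MMS-exposed wells, quantile normalised within each plate, with replicate values also given as a mean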
Scale: mean viability with MMS: higher = more surviving cells after MMS
The deposit covers about 23,000 reagents; this is an unselected part of those that have a named target and a result. 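Values are quantile-normalised luminescence on an arbitrary scale; higher means more cells surviving MMS.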 Not all columns of the deposit are shown. No sequences are given here.

CG15169 | mean viability with MMS = 3.77e6
OtopLb | mean viability with MMS = 3.30e6
CG13937 | mean viability with MMS = 1.81e6
Etfb | mean viability with MMS = 3.71e6

The list goes on; the last 2 above are carried over.
CG13937 | mean viability with MMS = 1.81e6
Etfb | mean viability with MMS = 3.71e6
Rcd7 | mean viability with MMS = 3.53e6
spz4 | mean viability with MMS = 3.50e6
CG7739 | mean viability with MMS = 3.56e6
CG7011 | mean viability with MMS = 3.51e6
wdb | mean viability with MMS = 3.27e6
beg | mean viability with MMS = 3.59e6
CG16984 | mean viability with MMS = 3.63e6
Cdk5 | mean viability with MMS = 3.63e6
CG8607 | mean viability with MMS = 3.52e6
Lsp1beta | mean viability with MMS = 3.62e6
